In patent publication US20180328927A1 (HUNAN SKYWORLD BIOTECHNOLOGIES CO., priority 2015, published 2018):
Some results were stated once for a whole list of compounds, not compound by compound. At least one structure is not confirmed: it was looked up by name or label, or the drawing left a doubt.

Legend:
[1] = tested on: anti-SAM monoclonal antibody 118-6; assay: Cross-reaction rate, repeated experiments; assay type: binding
[2] = tested on: anti-SAM monoclonal antibody 84-3; assay: Cross-reaction rate, repeated experiments; assay type: binding
[3] = tested on: rabbit anti-SAM polyclonal antibody R3; assay: Cross-reaction rate, repeated experiments; assay type: binding
anti-SAM antibody = settings: antibody product data; cited from earlier work

SMILES | cross-reaction rate [1] | cross-reaction rate [2] | cross-reaction rate [3] | cross-reaction (anti-SAM antibody)
Nc1ncnc2c1ncn2[C@@H]1O[C@H](COP(=O)(O)OP(=O)(O)O)[C@@H](O)[C@H]1O [ADP] | less than 1% | less than 1% | less than 1% | 
Nc1ncnc2c1ncn2[C@@H]1O[C@H](COP(=O)(O)OP(=O)(O)OP(=O)(O)O)[C@@H](O)[C@H]1O [ATP, adenosine triphosphate] | less than 1% | less than 1% | less than 1% | 
Nc1ncnc2c1ncn2[C@@H]1O[C@H](CSCC[C@H](N)C(=O)O)[C@@H](O)[C@H]1O [S-adenosylhomocysteine] |  |  |  | less than 1%
Nc1ncnc2c1ncn2[C@@H]1O[C@H](CO)[C@@H](O)[C@H]1O [adenosine] |  |  |  | less than 1%
CSC[C@H]1O[C@@H](n2cnc3c(N)ncnc32)[C@H](O)[C@@H]1O [methylthioadenosine] |  |  |  | less than 1%
